# Measured values published in PubChem BioAssay AID504648 (National Center for Advancing Translational Sciences (NCATS), 2011).
# In all, about 390,000 compounds went through this assay and about 610 (0.16%) were called active. Inconclusive means that the source gave no clear call. Such entries were picked first, then a sample of the others. The call rests on the fitted dose curve; in most records, active means well fitted inhibition curve with a large enough effect; inconclusive means small, poorly fitted or top-dose-only effect, or effect the other way, or another doubt; inactive means no such curve, though single readings can be large or run the other way. Potencies beside an inconclusive call are fits to weak or partial responses and may not hold up.
# Experiment: Nrf2 qHTS screen for inhibitors: counterscreen for cytotoxicity
# Settings: A549 ARE-Fluc cells, CellTiter-Fluor viability, 18-24 h; activity change, negative = cytotoxicity: at 46 µM (top of the series)
# Outline: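 A549 ARE_Fluc cells in 5% FBS OPTI-MEM were exposed to compounds in concentration-response for 18-24 h at 37 deg C. Viability was read by CellTiter-Fluor fluorescence (Ex 405/Em 525) after 30 min, before the luciferase read.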
# On the % scale 0 is the no-effect control and ±100 the full control effect; potency means the concentration at half of the fitted maximal effect.
Compound,Potency,"activity change, negative = cytotoxicity"
COc1cnc(-c2ccccn2)nc1N(C)C,"inconclusive: 20.6 µM [falling, partial curve, poor fit]",–
CCn1c(SCC(=O)N/N=C/C=C\c2ccccc2[N+](=O)[O-])nnc1-c1ccccc1,–,inactive: -17.1%
Cn1c(CC(=O)Nc2ccccc2)nnc1SCC(=O)NC1CCCC1,"inconclusive: 9.2 µM [falling, partial curve, poor fit]",–
COc1cc(N(C(=O)Cc2cccs2)C(C(=O)NC2CCCCC2)c2cccc(OC)c2OC)ccc1-n1cnnn1 (configuration not stated),–,inactive: -11.3%
O=C(/C=C/c1ccco1)NCC(=O)N/N=C/c1ccc([N+](=O)[O-])cc1,–,inactive: -0.479%
CCN(CC)c1ccc(N=Cc2ccc([N+](=O)[O-])o2)cc1,–,inactive: -24.8%
Cc1cc(C(=O)CSc2nc3ccc(Cl)cc3[nH]2)c(C)n1CC1CCCO1 (configuration not stated),–,inactive: -26.9%
CCC(C)(C)n1nnnc1C(c1cc2ccc(OC)cc2[nH]c1=O)N1CCCCC1 (configuration not stated),–,inactive: 0.343%
CCCCSc1nc(C)[nH]c1[N+](=O)[O-],"inconclusive: 5.8 µM [falling, partial curve, poor fit]",–
CCCCNc1c(-c2cccc(-c3cc(C(C)=O)cs3)c2)nc2ccc(C)cn12,"inconclusive: 18.4 µM [falling, single point]",–
O=C(O)c1ccccc1C(=O)Nc1ccc(Oc2cccc3ccccc23)cc1,–,inactive: -9.98%
CCCCCCCCCCS(=O)(=O)N/N=C/c1ccc(O)cc1,–,inactive: 0.753%
Clc1ccc(N2CCN(c3ncnc4c3oc3ccccc34)CC2)cc1,"inconclusive: 10.3 µM [activator, partial curve, poor fit]",–
CC(=O)OCCN(Cc1ccccc1)Cc1ccc2c(c1)OCO2,"inconclusive: 8.2 µM [activator, partial curve, poor fit]",–
Fc1cc(Br)ccc1Nc1c2c(nc3nc(-c4cccs4)nn13)CCCC2,"inconclusive: 18.4 µM [falling, single point]",–
COc1ccc(/C=C/C(=O)c2cc(F)ccc2OC(=O)c2ccccc2OC)cc1OC,"inconclusive: 4.61 µM [falling, full curve]",–
Cc1ccc(C(=O)Nc2cccc(C(=O)N/N=C/c3ccccc3F)c2)cc1,"inconclusive: 20.6 µM [falling, partial curve, poor fit]",–
CN(C(=O)c1cccc(NC(=O)Cc2ccc(NC(=O)C3CCCN(C(=O)C4CC4)C3)cc2)c1)C1CCC1 (configuration not stated),–,inactive: -3.33%
CCOC(=O)C1=C(O)c2ccccc2C(=O)/C1=C\c1ccc(CC)cc1,"inconclusive: 4.61 µM [falling, single point]",–
O=C(/C=C/c1cccnc1)c1ccc([N+](=O)[O-])cc1,–,inactive: 4.51%
CC(C)n1c(=N)c(C(=O)NCCc2ccccc2)cc2c(=O)n3ccccc3nc21,"inconclusive: 14.6 µM [activator, partial curve]",–
Cc1ccc(C)c(Nc2nc3c(S(=O)(=O)c4ccc(C(C)C)cc4)nnn3c3ccsc23)c1,"inconclusive: 16.4 µM [falling, partial curve, poor fit]",–
Cc1cc(C)cc(N(CC(=O)N/N=C/c2ccncc2)S(=O)(=O)c2ccccc2)c1,–,inactive: 7.93%

Compound,Potency,"activity change, negative = cytotoxicity"
N#CC1=C(N)N=C(SCc2cccc3ccccc23)C(C(N)=O)C12CCCCC2 (configuration not stated),"inconclusive: 29.1 µM [falling, single point]",–
O=C1OCCN1C(=O)[C@H]1[C@H](c2ccccc2)C(c2cccc(Cl)c2)=NN1c1ccccc1,"inconclusive: 16.4 µM [activator, partial curve, poor fit]",–
CCOC(=O)Nc1ccc2c(c1)N(C(=O)CCN(C)C)c1ccccc1CC2,"inconclusive: 29.1 µM [falling, single point]",–
CCC(Sc1nc(=O)cc(N)n1-c1ccccc1)C(=O)Nc1cc(C)on1 (configuration not stated),–,inactive: -14.8%
CC(=O)OCC(NC(=O)C(COCc1ccccc1)NC(=O)OC(C)(C)C)C1OC(n2cc(F)c(=O)[nH]c2=O)C(OC(C)=O)C1OC(C)=O (configuration not stated),–,inactive: -5.01%
O=c1c(-c2ccc(F)cc2)coc2c3c(ccc12)OCCO3,–,inactive: -3.97%
Cc1cccc2sc(NC(=O)CN(C)S(=O)(=O)c3ccc(Br)s3)nc12,"inconclusive: 18.4 µM [falling, partial curve, poor fit]",–
COC(=O)CCN(C(=O)c1cccc([N+](=O)[O-])c1)c1ccccn1,–,inactive: -1.37%
CC(C)(C)C(=O)NCCc1nc2ccccc2n1CCCCOc1ccc(Cl)cc1,"inconclusive: 29.1 µM [falling, single point]",–
O=C(Nc1ccc(C(=O)N2CCCc3ccccc32)cc1)c1cccs1,"inconclusive: 32.6 µM [falling, partial curve, poor fit]",–
O=C1C(NS(=O)(=O)c2ccccc2)=C(N2CCN(c3ccc(F)cc3)CC2)C(=O)c2ccccc21,–,inactive: -0.357%
CC1CCC(N2CCN(S(C)(=O)=O)CC2)CC1 (configuration not stated),–,inactive: 0.351%
CCN1CCN(c2nc(Nc3ccccc3F)nc(N)c2[N+](=O)[O-])CC1,"inconclusive: 6.51 µM [activator, single point]",–
COc1ccc(Cn2c(C(=O)O)c(CNCCc3cccs3)c3ccc(C)cc32)cc1,"inconclusive: 20.6 µM [falling, partial curve, poor fit]",–
COc1cc2ncc(C(=O)c3ccccc3)c(N3CCN(Cc4ccccc4)CC3)c2cc1OC,"inconclusive: 23.1 µM [falling, partial curve, poor fit]",–
COc1ccc(-n2nc3c(N4CCCC(C(=O)NCc5cccc(F)c5)C4)nnc(C)c3c2C)cc1 (configuration not stated),"inconclusive: 11.6 µM [falling, partial curve, poor fit]",–
Cc1nc2ccccc2c2c(N)c3ccccc3n12,–,inactive: -9.96%
COc1ccc(C(=O)NCC(=O)N/N=C/c2ccc([N+](=O)[O-])o2)cc1OC,"inconclusive: 14.6 µM [falling, partial curve, poor fit]",–
Oc1ccc(C[C@H]2CNC(=S)N2CC2CCCN2C[C@H](Cc2ccccc2)N2C[C@H](Cc3ccc(O)cc3)N(CCc3ccccc3)C2=S)cc1 (some centres not stated),"inconclusive: 11.6 µM [falling, partial curve, poor fit]",–
O=C(NC(=S)NCc1ccc(F)cc1)c1ccccc1,"inconclusive: 4.11 µM [activator, full curve, poor fit]",–
CCN(C(=O)COC(=O)c1[nH]c(C)c(C(C)=O)c1C)c1c(N)n(Cc2ccccc2)c(=O)[nH]c1=O,–,inactive: 4%
Cc1ccc(CCc2nnc(SCC(=O)Nc3ccccc3Cl)n2-c2ccccc2)o1,"inconclusive: 29.1 µM [falling, partial curve, poor fit]",–
N#Cc1c(-c2ccc(Cl)cc2)ccn2nc(CCC(=O)O)nc12,–,inactive: -0.122%

# Whole records, looked up by structure. Values in the order: Potency | activity change, negative = cytotoxicity
# `CCN1CCN(c2nc(Nc3ccccc3F)nc(N)c2[N+](=O)[O-])CC1` is listed as inconclusive: 6.51 µM [activator, single point] | –
# `O=C1C(NS(=O)(=O)c2ccccc2)=C(N2CCN(c3ccc(F)cc3)CC2)C(=O)c2ccccc21` is listed as – | inactive: -0.357%
# `O=C(NC(=S)NCc1ccc(F)cc1)c1ccccc1` is listed as inconclusive: 4.11 µM [activator, full curve, poor fit] | –

# Remaining list, next part:

Compound,Potency,"activity change, negative = cytotoxicity"
COc1ccc(OC)c(/C=N\NC(=O)c2cc3c(ccc4ccccc43)o2)c1,–,inactive: 3.71%
COc1cccc(-c2nnc3n2N=C(c2ccc(OC)cc2OC)CS3)c1,"inconclusive: 1.64 µM [falling, partial curve]",–
Cc1cccc(NS(=O)(=O)c2ccc3oc(=O)c4ncn(C)c4c3c2)c1C,–,inactive: 0.102%
COc1ccc(NC(=O)CN(C)CC(=O)Nc2sc3c(c2C#N)CCC3)cc1,–,inactive: -6.87%
COc1cccc(CNC(=O)C2Cc3cc(S(=O)(=O)N4CCCC4)ccc3N2C(C)=O)c1OC (configuration not stated),–,inactive: 0%
CCSc1nnc(SCC(=O)NNC(=O)c2ccccc2F)s1,"inconclusive: 20.6 µM [activator, single point]",–
C=C(C(=O)c1ccccc1)C(C)CC(=O)c1ccccc1 (configuration not stated),"inconclusive: 16.4 µM [activator, partial curve, poor fit]",–
O=C(CSc1nc2ncc(Cl)cc2[nH]1)Nc1ccccc1-c1ccccc1,"inconclusive: 29.1 µM [falling, partial curve, poor fit]",–
O=C(N/N=C/c1ccc([N+](=O)[O-])o1)c1ccncc1,"inconclusive: 13 µM [falling, partial curve]",–
Nc1ncnc2c(C3OC(CO)C(O)C3O)c[nH]c12 (configuration not stated),"inconclusive: 2.31 µM [falling, partial curve]",–
Cc1cccc(NC(=O)c2c(NC(=O)C(F)(F)F)sc3c2CCCCC3)c1,"inconclusive: 8.2 µM [falling, partial curve]",–
O=C(O)c1ccc(N/N=C/C=C/c2ccc([N+](=O)[O-])o2)cc1,"inconclusive: 18.4 µM [falling, partial curve, poor fit]",–
O=C(NCCS(=O)(=O)N1CCN(c2ccccc2)CC1)C(c1ccccc1)c1ccccc1,–,inactive: 11.7%
CC(=O)c1cccc(Nc2cc(C)nc3c(C)cccc23)c1,"inconclusive: 20.6 µM [falling, partial curve, poor fit]",–
CCc1ccc(CNCc2c(C(=O)O)n(Cc3cccc(F)c3)c3cc(OC)ccc23)cc1,"inconclusive: 16.4 µM [falling, single point]",–
O=[N+]([O-])c1ccc(N2CCN(c3ccccc3)CC2)cc1,"inconclusive: 32.6 µM [falling, partial curve, poor fit]",–
COc1ccc(/C=N/Nc2cc(C)nc3ccccc23)cc1,"inconclusive: 6.51 µM [falling, partial curve, poor fit]",–
CC(=O)C1C(=O)c2c(cccc2[N+](=O)[O-])C1=Nc1ccc(S(N)(=O)=O)cc1 (configuration not stated),"inconclusive: 25.9 µM [falling, partial curve, poor fit]",–
O=C(CCc1nc(-c2ccccc2F)no1)Nc1ccc(Oc2ccccc2)cc1,"inconclusive: 23.1 µM [falling, single point]",–
NC(=O)c1cc([N+](=O)[O-])ccc1NCc1ccc(F)cc1,–,inactive: -7.29%
COC(=O)[C@H](CCSC)NC(=O)N1CCC(C)CC1,–,inactive: -2.94%
